# Assay results as given in PubChem BioAssay AID602313 (National Center for Advancing Translational Sciences (NCATS), 2012).
# Hit rate of the full screen: of about 390,000 compounds, about 760 (0.19%) were called active. The inconclusive results got no clear call from the source; some entries with a clear call stand among them for comparison. Calls follow the shape of the dose curve; as a rule, active = well fitted inhibition curve with a large enough effect; inconclusive = small, poorly fitted or top-dose-only effect; inactive = flat fitted curve, though single readings scatter. Potencies of inconclusive entries are doubtful fits and often do not repeat.
# Experiment: qHTS for Inhibitors of Vif-A3F Interactions: qHTS; also: nearly all actives have a fitted effect of over 65% in size; as to activity, negative = active: % of control where 0% means no effect
# Details: HeLa A3F-eYFP + Vif (tagged APOBEC3F with the HIV-1 protein that degrades it), YFP fluorescence increase; series mostly up to 46.1 µM; activity, negative = active: at the top concentration
# Method in brief: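 HeLa cells stably expressing Vif plus C-terminally eYFP-tagged A3F were seeded, incubated overnight at 37 deg C, dosed with compound, incubated overnight again at 37 deg C. Yellow fluorescence (Ex 488/Em 500-530) reported blocked Vif-mediated A3F-eYFP degradation.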
# Potency is read from the fitted curve at half-maximal effect.
SMILES,"activity, negative = active",Potency
O=C(CN1C(=O)S/C(=C\c2ccc(O)cc2)C1=O)c1ccccc1,inactive: -8.66%,–
COc1cc(C(=O)Nc2ccc3c(c2)nc(C)n3C)cc(OC)c1OC,–,"inconclusive: 10 µM [inhibitor, partial curve, poor fit]"
CCN(CC)c1ccc(/C=N/NC(=O)c2cccc(N3CCCC3=O)c2)cc1,inactive: -8.46%,–
COC(=O)c1c(NC(=O)CC2Nc3ccccc3NC2=O)sc(C)c1C (centres undefined),–,"inconclusive: 35.5 µM [inhibitor, single point]"
S=C(Nc1ccccc1)c1ccccn1,inactive: -0.544%,–
O=C(NCc1ccco1)c1cccn2c(=O)c3c4c(sc3nc12)CCCC4,–,"inconclusive: 35.5 µM [inhibitor, single point]"
CC(c1ccccc1)N(CCC(c1ccccc1)C1CCOC(C)(C)C1)C(=O)c1ccco1 (centres undefined),inactive: -2.11%,–
Cc1ccc(-c2c(C)n3c4c(=O)n(C)c(=O)n(C)c4nc3n2CCCO)cc1,inactive: 8.36%,–
NC(=O)c1c(NC(=O)c2ccccc2)sc2c1CCN(Cc1ccccc1)C2,–,"inconclusive: 20 µM [inhibitor, partial curve, poor fit]"
Cc1cc2oc3ccc(NCCCn4ccnc4)cc3c(=O)c2cc1C,–,active: 22.4 µM
OC[C@@H]1[C@@H](c2ccccc2)C(c2cccc(Cl)c2)=NN1c1ccccc1,inactive: 9.56%,–
CCN(CC)CCNC(=O)c1ccc(NC(=O)C2CC(=O)N(c3ccc4c(c3)OCCO4)C2)cc1 (centres undefined),–,"inconclusive: 0.355 µM [inhibitor, full curve, poor fit]"
C#CCOCCOCCOCCNc1nc(N2CCN(C(=O)CCCCCCCCCCNC(=O)Cn3cc(C[C@@H](C)O)nn3)CC2)nc(N2CCN(C(=O)CCCCCCCCCCNC(=O)[C@@H](CCC(=O)O)n3cc(CCCCCN)nn3)CC2)n1,inactive: 3.15%,–
O=C(/C=C/c1cn(CC(O)CN2CCc3ccccc32)c2ccccc12)c1ccc(Br)cc1 (centres undefined),–,"inconclusive: 22.4 µM [inhibitor, single point]"
Cc1ccccc1C(=O)NC(NC(=S)Nc1ccc(S(N)(=O)=O)cc1)C(Cl)(Cl)Cl (centres undefined),inactive: -10.2%,–
CCCCc1cc(=O)oc2cc(C)cc(OCC(=O)Nc3ccccn3)c12,–,"inconclusive: 5.62 µM [inhibitor, full curve, poor fit]"
CCOC(=O)Cn1c(-c2nonc2NC(=O)c2ccccc2F)nc2ccccc21,–,"inconclusive: 10 µM [inhibitor, partial curve, poor fit]"
CCOC(=O)C#CC(CCc1ccccc1)OS(N)(=O)=O (centres undefined),inactive: 1.81%,–
COc1ccc(C(=O)c2sc(Nc3ccc(NC(C)=O)cc3)nc2C)cc1,inactive: 1.48%,–
CC(C)Oc1ccc(CNC(=O)C2CCCN(S(=O)(=O)c3ccc4c(ccn4C)c3)C2)cc1 (centres undefined),inactive: 0.0155%,–
Cc1ccc(CSc2nnc3[nH]c(=O)cc(C)n23)cc1,inactive: 1.17%,–
Nc1cc(=O)[nH]c(SCC(=O)N2N=C(c3ccc4ccccc4c3)CC2c2ccccc2)n1 (centres undefined),–,"inconclusive: 35.5 µM [inhibitor, single point]"
O=C(Cn1nnc(-c2ccccc2)n1)Nc1cccc(S(=O)(=O)N2CCOCC2)c1,–,"inconclusive: 12.6 µM [inhibitor, partial curve, poor fit]"

SMILES,"activity, negative = active",Potency
COCCNC(=S)N/N=C/c1c2ccccc2cc2ccccc12,–,"inconclusive: 3.55 µM [inhibitor, partial curve, poor fit]"
COC(=O)C1C2CC3c4[nH]c5cc(OC)ccc5c4CCN3CC2CC(O)C1OC (centres undefined),–,"inconclusive: 28.2 µM [inhibitor, single point]"
Cc1cccn2c(=O)c(/C=C(\C#N)c3nc4ccccc4n3C)c(Oc3ccc(Cl)cc3)nc12,–,"inconclusive: 10 µM [inhibitor, partial curve, poor fit]"
COc1cccc(CNC(=O)CCc2c(C)nn(-c3ccc(N4CCOCC4)nn3)c2C)c1,inactive: 2.56%,–
N#Cc1sc2nc(-c3ccccc3)cc(-c3ccco3)c2c1N,–,"inconclusive: 35.5 µM [inhibitor, single point]"
O=C(/C=C/Nc1ccccc1C(F)(F)F)c1ccco1,–,"inconclusive: 20 µM [inhibitor, partial curve, poor fit]"
COc1ccc(Cc2nnc(CCc3ccccc3)s2)cc1,–,"inconclusive: 35.5 µM [inhibitor, single point]"
COc1ccc(OC)c(NC(=O)c2nc(SCc3ccccc3F)ncc2Cl)c1,inactive: 4.53%,–
O=C(COC(=O)c1cncc(Br)c1)NC1CCCCCC1,–,"inconclusive: 6.31 µM [inhibitor, single point]"
O=C(NC1CCN(C(=O)Nc2ccc(F)cc2)CC1)c1cccc(F)c1,–,"inconclusive: 15.8 µM [inhibitor, partial curve, poor fit]"
O[C@@H]1CN(Cc2cccs2)[C@@H](c2ccc(Cl)cc2)C[C@H]1n1cc(-c2ccc(F)cc2)nn1,inactive: -12.7%,–
CNC(=S)Nc1ccc(-c2nc3ccc(C)cc3s2)cc1,–,"inconclusive: 35.5 µM [inhibitor, single point]"
Cc1ccc(OCCCC(=O)NCc2ccco2)cc1,inactive: -2.84%,–
CS/C(N)=N/N=C/c1cc(C)ccc1O,inactive: -22.5%,–
O=C(N/C(=C/c1cccnc1)C(=O)N1CCOCC1)c1ccccc1Cl,–,"inconclusive: 35.5 µM [inhibitor, single point]"
Cn1nc(C(F)(F)F)c(CO)c1Sc1ccc(F)cc1,–,"inconclusive: 2 µM [inhibitor, partial curve, poor fit]"
Cn1c(COc2nnc(-c3ccc(Cl)cc3)c3ccccc23)nc2ccccc21,inactive: -2.27%,–
O=C(N/N=C/c1c(O)ccc2ccccc12)c1cccc(C(F)(F)F)c1,–,"inconclusive: 25.1 µM [inhibitor, single point]"
Cc1ccc2oc(C(=O)Nc3sc4c(c3C(=O)NCc3ccccc3)CCCC4)cc(=O)c2c1,inactive: -0.314%,–
CCOC(=O)/C=C/C(=O)N1CCN(C(=O)/C=C/C(=O)OCC)CC1,–,"inconclusive: 5.62 µM [inhibitor, single point]"
CCOc1cccc(/C=C/c2ccc3cccc(O)c3n2)c1OC,–,"inconclusive: 35.5 µM [inhibitor, single point]"
Cc1cccc(C(=O)OC(C)C(=O)NC(=O)NC2CCCCC2)c1O (centres undefined),–,"inconclusive: 35.5 µM [inhibitor, single point]"
CC(Oc1ccc(Cl)cc1Cl)c1nc(-c2ccc(NC(=O)c3ccco3)cc2)no1 (centres undefined),–,"inconclusive: 17.8 µM [inhibitor, single point]"

SMILES,"activity, negative = active",Potency
Brc1ccccc1OCCCOc1cccc2cccnc12,–,"inconclusive: 35.5 µM [inhibitor, single point]"
Cc1ccc(C)c(C(C)NC(=S)NCc2ccc(F)cc2)c1 (centres undefined),–,active: 11.2 µM
CCOC(=O)c1c(NC(=O)c2ccco2)n(C2CCCCC2)c2nc3ccccc3nc12,inactive: 2.43%,–
COCCNC(=O)NC(=O)COC(=O)c1ccc2[nH]c3c(c2c1)CCCC3,–,"inconclusive: 5.01 µM [inhibitor, single point]"
CCOc1ccc(NC(=S)NC(=O)/C=C/c2ccc(OC)c(OC)c2)c([N+](=O)[O-])c1,–,"inconclusive: 22.4 µM [inhibitor, single point]"
O=S(=O)(NCCc1nnc2ccc(SCc3c(F)cccc3Cl)nn12)c1ccccc1,inactive: -0.199%,–
Fc1ccc(-c2cc(-c3ccccc3)nc(-n3cccn3)n2)cc1,inactive: 1.94%,–
Fc1cccc(/C=N/Nc2ccccn2)c1,–,"inconclusive: 35.5 µM [inhibitor, single point]"
O=C1c2cccc3c([N+](=O)[O-])ccc(c23)C(=O)N1c1nccs1,–,"inconclusive: 22.4 µM [inhibitor, partial curve, poor fit]"
O=S1OC(c2ccccc2)c2cc(Cl)ccc21 (centres undefined),–,"inconclusive: 35.5 µM [inhibitor, single point]"
CCNc1ccccc(C(=O)/C=C/c2ccc3c(c2)OCO3)c1=O,–,"inconclusive: 22.4 µM [inhibitor, partial curve, poor fit]"
O=C(CCN1C(=O)/C(=C/c2ccccc2F)SC1=S)NCCCN1CCOCC1,–,"inconclusive: 5.62 µM [inhibitor, single point]"
COC(=O)C(Cc1ccc(O)cc1)NC(=O)c1ccc2c(c1)OCCO2 (centres undefined),–,"inconclusive: 17.8 µM [inhibitor, partial curve, poor fit]"
CN(CC(=O)Nc1ccc(F)cc1)C(=O)c1ccc(OCc2ccccc2)cc1,–,"inconclusive: 4.47 µM [inhibitor, single point]"
Cc1cc(C)c(-n2[nH]nnc2=S)c(C)c1,inactive: 0.822%,–
NS(=O)(=O)c1ccc(CCNCc2ccccc2OCc2ccc(F)cc2)cc1,inactive: -3.85%,–
O=c1[nH]c(=S)ccn1C1OC(CO)C(O)C1O (centres undefined),–,"inconclusive: 35.5 µM [inhibitor, single point]"
O=C(CCCc1nc2ccccc2s1)N1CCN(c2ccccc2)CC1,inactive: 14.7%,–
Cc1ccc2c(CC(=O)OCC(=O)N(CC(C)C)c3c(N)n(Cc4ccccc4)c(=O)[nH]c3=O)coc2c1,–,"inconclusive: 35.5 µM [inhibitor, partial curve, poor fit]"
COc1cc(/C=C/C(=O)NCC(=O)N2CCC(N(C)CCN3CCOCC3)CC2)ccc1OC(C)C,–,"inconclusive: 1.12 µM [inhibitor, full curve, poor fit]"
COC(=O)c1c(C)sc(-c2c(-c3ccc4c(c3)OCCO4)[nH]c3c2c(=O)[nH]c(=O)n3C)c1O,–,"inconclusive: 22.4 µM [inhibitor, single point]"
Cc1ccc(C)c(N(C)S(=O)(=O)c2ccc3[nH]cc(C(=O)NC4CCCC4)c(=O)c3c2)c1,inactive: -1.33%,–
S=c1[nH]nc(-c2ccccc2)n1C1C=CCCC1 (centres undefined),inactive: -2.96%,–

# Among those listed so far, these have a cyano group.
SMILES,"activity, negative = active",Potency
Cc1cccn2c(=O)c(/C=C(\C#N)c3nc4ccccc4n3C)c(Oc3ccc(Cl)cc3)nc12,–,"inconclusive: 10 µM [inhibitor, partial curve, poor fit]"
N#Cc1sc2nc(-c3ccccc3)cc(-c3ccco3)c2c1N,–,"inconclusive: 35.5 µM [inhibitor, single point]"
